Our source for the binding values is paper PMC8027439.

The chains behind the UniProt entries cited, without tags or fusion partners.
UniProt Q14739: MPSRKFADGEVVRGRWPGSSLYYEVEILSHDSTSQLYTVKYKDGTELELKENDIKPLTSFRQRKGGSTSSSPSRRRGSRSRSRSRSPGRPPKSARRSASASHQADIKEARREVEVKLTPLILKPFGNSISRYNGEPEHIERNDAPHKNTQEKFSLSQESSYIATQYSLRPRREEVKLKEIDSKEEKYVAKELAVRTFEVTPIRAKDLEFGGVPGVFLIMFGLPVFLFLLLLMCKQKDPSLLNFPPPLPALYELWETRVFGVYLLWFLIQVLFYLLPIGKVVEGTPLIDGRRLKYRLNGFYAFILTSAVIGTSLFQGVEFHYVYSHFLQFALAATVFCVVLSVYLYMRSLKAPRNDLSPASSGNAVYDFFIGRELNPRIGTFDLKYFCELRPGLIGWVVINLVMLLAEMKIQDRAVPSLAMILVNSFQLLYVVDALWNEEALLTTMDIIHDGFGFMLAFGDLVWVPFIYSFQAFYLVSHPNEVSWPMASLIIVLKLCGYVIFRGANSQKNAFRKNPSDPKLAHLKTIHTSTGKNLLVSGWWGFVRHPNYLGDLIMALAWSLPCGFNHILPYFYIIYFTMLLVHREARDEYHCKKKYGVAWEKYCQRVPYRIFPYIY
UniProt O00327: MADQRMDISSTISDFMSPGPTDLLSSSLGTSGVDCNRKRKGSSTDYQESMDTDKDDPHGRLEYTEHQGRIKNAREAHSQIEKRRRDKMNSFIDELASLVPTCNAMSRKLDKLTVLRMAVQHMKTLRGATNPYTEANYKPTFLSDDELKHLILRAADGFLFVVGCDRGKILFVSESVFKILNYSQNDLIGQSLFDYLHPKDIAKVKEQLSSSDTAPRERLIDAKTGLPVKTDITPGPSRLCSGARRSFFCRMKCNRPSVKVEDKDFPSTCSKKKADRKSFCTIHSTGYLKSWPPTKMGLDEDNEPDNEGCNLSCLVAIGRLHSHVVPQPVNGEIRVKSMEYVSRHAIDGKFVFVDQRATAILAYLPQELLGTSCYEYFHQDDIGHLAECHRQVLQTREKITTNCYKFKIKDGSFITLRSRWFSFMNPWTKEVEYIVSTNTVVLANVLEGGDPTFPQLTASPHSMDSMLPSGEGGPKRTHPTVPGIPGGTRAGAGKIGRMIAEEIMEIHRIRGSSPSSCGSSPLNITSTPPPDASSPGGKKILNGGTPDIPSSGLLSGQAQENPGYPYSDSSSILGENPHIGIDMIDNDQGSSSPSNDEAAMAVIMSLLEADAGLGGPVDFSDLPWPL
UniProt Q13263: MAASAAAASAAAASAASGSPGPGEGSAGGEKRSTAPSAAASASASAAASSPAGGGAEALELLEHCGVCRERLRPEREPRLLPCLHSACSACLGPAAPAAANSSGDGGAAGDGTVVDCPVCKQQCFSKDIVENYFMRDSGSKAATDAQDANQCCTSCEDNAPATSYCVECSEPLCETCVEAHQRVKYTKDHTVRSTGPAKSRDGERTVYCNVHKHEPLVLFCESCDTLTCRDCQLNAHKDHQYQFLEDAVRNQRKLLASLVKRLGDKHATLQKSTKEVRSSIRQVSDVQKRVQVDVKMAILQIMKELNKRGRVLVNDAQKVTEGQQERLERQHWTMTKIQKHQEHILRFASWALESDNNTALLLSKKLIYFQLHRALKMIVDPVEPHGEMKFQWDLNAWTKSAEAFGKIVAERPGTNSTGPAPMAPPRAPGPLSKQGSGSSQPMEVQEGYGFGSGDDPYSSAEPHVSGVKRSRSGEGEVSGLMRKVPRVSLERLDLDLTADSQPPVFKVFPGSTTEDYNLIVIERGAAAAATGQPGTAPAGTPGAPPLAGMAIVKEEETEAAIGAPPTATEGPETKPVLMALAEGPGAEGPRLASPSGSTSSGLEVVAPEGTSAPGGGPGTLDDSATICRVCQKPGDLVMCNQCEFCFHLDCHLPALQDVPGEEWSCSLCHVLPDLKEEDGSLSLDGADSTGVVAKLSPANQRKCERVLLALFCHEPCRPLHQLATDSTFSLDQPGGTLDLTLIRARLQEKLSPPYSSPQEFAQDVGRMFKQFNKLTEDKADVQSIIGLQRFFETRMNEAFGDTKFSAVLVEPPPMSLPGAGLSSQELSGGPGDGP

No constants are given. Whether binding was seen depends on the method and setting. In cells and extracts the contact can be indirect. Here binding means that the protein was enriched with, or labelled near, the bait; the list need not be complete. Tags and fused reporters may be left off the sequences shown.

First the molecules themselves.
T1: Flag-tagged CLOCK (full-length, wild type) (human) (UniProt O15516)
T1 sequence: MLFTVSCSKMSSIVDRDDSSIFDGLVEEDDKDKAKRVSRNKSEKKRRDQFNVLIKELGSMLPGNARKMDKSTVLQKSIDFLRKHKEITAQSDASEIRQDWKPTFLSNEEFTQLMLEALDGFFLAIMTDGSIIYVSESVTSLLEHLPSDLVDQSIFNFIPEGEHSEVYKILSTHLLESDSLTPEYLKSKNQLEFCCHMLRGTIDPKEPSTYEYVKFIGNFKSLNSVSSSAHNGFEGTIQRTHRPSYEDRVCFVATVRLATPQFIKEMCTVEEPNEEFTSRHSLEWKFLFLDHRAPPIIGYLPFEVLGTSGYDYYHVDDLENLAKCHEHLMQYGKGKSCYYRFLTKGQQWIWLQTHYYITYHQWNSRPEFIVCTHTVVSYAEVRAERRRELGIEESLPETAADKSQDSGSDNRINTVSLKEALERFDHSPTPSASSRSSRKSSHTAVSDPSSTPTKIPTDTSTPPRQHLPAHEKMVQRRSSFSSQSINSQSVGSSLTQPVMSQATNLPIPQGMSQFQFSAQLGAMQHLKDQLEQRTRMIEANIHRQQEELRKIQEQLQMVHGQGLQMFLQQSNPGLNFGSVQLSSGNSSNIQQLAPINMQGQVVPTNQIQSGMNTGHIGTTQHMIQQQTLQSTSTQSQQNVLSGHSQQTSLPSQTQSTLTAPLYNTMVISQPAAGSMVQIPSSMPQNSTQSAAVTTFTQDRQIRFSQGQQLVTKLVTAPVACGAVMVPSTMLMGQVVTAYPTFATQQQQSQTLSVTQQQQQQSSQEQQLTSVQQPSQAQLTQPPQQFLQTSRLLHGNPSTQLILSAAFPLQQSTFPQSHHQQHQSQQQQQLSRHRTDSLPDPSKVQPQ

B1: CIPC, circadian clock protein (protein, UniProt Q9C0C6 1-399)
chain: MERKNPSRESPRRLSAKVGKGTEMKKVARQLGMAAAESDKDSGFSDGSSECLSSAEQMESEDMLSALGWSREDRPRQNSKTAKNAFPTLSPMVVMKNVLVKQGSSSSQLQSWTVQPSFEVISAQPQLLFLHPPVPSPVSPCHTGEKKSDSRNYLPILNSYTKIAPHPGKRGLSLGPEEKGTSGVQKKICTERLGPSLSSSEPTKAGAVPSSPSTPAPPSAKLAEDSALQGVPSLVAGGSPQTLQPVSSSHVAKAPSLTFASPASPVCASDSTLHGLESNSPLSPLSANYSSPLWAAEHLCRSPDIFSEQRQSKHRRFQNTLVVLHKSGLLEITLKTKELIRQNQATQVELDQLKEQTQLFIEATKSRAPQAWAKLQASLTPGSSNTGSDLEAFSDHPAI

The test concerns the target T1, Flag-tagged CLOCK (full-length, wild type) (human). The test is described as follows: affinity purification with mass spectrometry; Flag-tagged CLOCK expressed in HEK293T cells, immunoprecipitation with an anti-Flag antibody, gel bands digested with trypsin, nanoLC-MS/MS; Flag-luciferase as negative control.
“LBR, nuclear lamina protein (from UniProt Q14739 1-615)”: the binding entry is “binds”.
On to “BMAL1, circadian clock protein (from UniProt O00327 1-626)”, for which the binding entry is listed as “binds”.
For the molecule “KAP1, heterochromatin-associated protein (from UniProt Q13263 1-835)”, the binding result is given as “binds”.
The value for B1 was “binds”.
